Consider eleven molecules from publication PMC5824958.

These are yes or no findings as the source states them, for the method shown. In cells and extracts the contact can be indirect. These calls come from enrichment with a bait or labelling near it, and not all partners need be listed.

The target of the experiment is T1, BRI2 (integral membrane protein 2B) (rat (endogenous in brain)) (UniProt Q5XIE8).
T1 sequence: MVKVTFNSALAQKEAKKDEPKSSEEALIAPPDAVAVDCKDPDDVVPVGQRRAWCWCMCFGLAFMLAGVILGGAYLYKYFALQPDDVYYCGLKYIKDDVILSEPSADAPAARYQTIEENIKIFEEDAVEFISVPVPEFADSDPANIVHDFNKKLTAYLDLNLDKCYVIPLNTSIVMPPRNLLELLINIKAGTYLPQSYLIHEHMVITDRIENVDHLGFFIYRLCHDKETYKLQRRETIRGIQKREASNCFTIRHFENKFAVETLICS
Briefly: affinity purification with mass spectrometry; mouse anti-BRI2 antibody (N-terminal region) on Dynabeads Protein G; pre-cleared rat cerebral cortex, hippocampus and cerebellum lysates (50 mM Tris-HCl pH 8.0, 120 mM NaCl, 4% CHAPS), overnight at 4 °C; co-precipitated proteins identified by nano-HPLC-MS/MS; hits absent from the two mock IPs or with a PSM ratio >= 2.0.

B1: Serine/threonine-protein kinase DCLK1 (protein, UniProt O08875 1-433)
chain: MLELIEVNGTPGSQLSTPRSGKSPSPSPTSPGSLRKQRISQHGGSSTSLSSTKVCSSMDENDGPGEEESDEGFQIPATITERYKVGRTIGDGNFAVVKECIERSTAREYALKIIKKSKCRGKEHMIQNEVSILRRVKHPNIVLLIEEMDVPTELYLVMELVKGGDLFDAITSTSKYTERDASGMLYNLASAIKYLHSLNIVHRDIKPENLLVYEHQDGSKSLKLGDFGLATIVDGPLYTVCGTPTYVAPEIIAETGYGLKVDIWAAGVITYILLCGFPPFRGSGDDQEVLFDQILMGQVDFPSPYWDNVSDSAKELINMMLLVNVDQRFSAVQVLEHPWVNDDGLPENEHQLSVAGKIKKHFNTGPKPSSTAAGVSVIATTALDKERQVFRRRRNQDVRGRYKAQPAPPELNSESEDYSPSSSETVRSPNSPF
With B1, the binding result is listed as “binds”.

B2: Neurotrimin (protein, UniProt Q62718 33-321)
chain: SGDATFPKAMDNVTVRQGESATLRCTIDNRVTRVAWLNRSTILYAGNDKWCLDPRVVLLSNTQTQYSIEIQNVDVYDEGPYTCSVQTDNHPKTSRVHLIVQVSPKIVEISSDISINEGNNISLTCIATGRPEPTVTWRHISPKAVGFVSEDEYLEIQGITREQSGEYECSASNDVAAPVVRRVNVTVNYPPYISEAKGTGVPVGQKGTLQCEASAVPSAEFQWFKDDKRLVEGKKGVKVENRPFLSRLTFFNVSEHDYGNYTCVASNKLGHTNASIMLFGPGAVSEVNN
With B2, the binding result is reported as “binds”.

B3: Beta-soluble NSF attachment protein (protein, UniProt P85969 1-297)
chain: MDNAGKEREAVQLMAEAEKRVKASHSFLRGLFGGNTRIEEACEMYTRAANMFKMAKNWSAAGNAFCQAAKLHMQLQSKHDSATSFVDAGNAYKKADPQEAINCLNAAIDIYTDMGRFTIAAKHHITIAEIYETELVDIEKAIAHYEQSADYYKGEESNSANKCLLKVAAYAAQLEQYQKAIEIYEQVGANTMDNPLLKYSAKDYFFKAALCHFIVDELNAKLALEKYEEMFPAFTDSRECKLLKKLLEAHEEQNSEAYTEAVKEFDSISRLDQWLTTMLLRIKKSIQGDGEGDGDLK
Regarding B3, the binding entry was “binds”.

B4: Septin-5 (protein, UniProt Q9JJM9 1-369)
chain: MSTGLRYKSKLATPEDKQDIDKQYVGFATLPNQVHRKSVKKGFDFTLMVAGESGLGKSTLVHSLFLTDLYKDRKLLSAEERINQTVEILKHTVDIEEKGVKLKLTIVDTPGFGDAVNNFECWKPITDYVDQQFEQYFRDESGLNRKNIQDNRVHCCLYFISPFGHGLRPVDVGFMKALHEKVNIVPLIAKADCLVPSEIRKLKDRIREEIDKFGIHVYQFPECDSDEDEDFKQQDRELKESAPFAVIGSNTVVEAKGQRVRGRLYPWGIVEVENQAHCDFVKLRNMLIRTHMHDLKDVTCDVHYENYRAHCIQQMTSKLTQDSRMESPIPILPLPTPDSETEKLIRMKDEELRRMQEMLQKMKQRMQDQ
Turning to B4, the binding result was “binds”.

B5: Secretory carrier-associated membrane protein 5 (protein, UniProt Q9JKE3 1-235)
chain: MAEKVNNFPPLPKFIPLKPCFYQDFEADIPPQHLSLTKRLYYLWMLNSVTLAVNLVGCLAWLIGGGGATNFGLAFLWLILFTPCSYVCWFRPIYKAFKTDSSFSFMAFFFTFMAQLVISIIQAVGIPGWGVCGWIATISFFGTNIGSAVVMLIPTVMFTVVAVFSFIALSMVHKFYRGSGGSFSKAQEEWTTGAWKNPHVQQAAQNAAMGAAQGAMNQPQTQYSTTPNYTYSNEM
For B5, the binding entry is “binds”.

B6: Neuronal migration protein doublecortin (protein, UniProt Q9ESI7 1-365)
chain: MELDFGHFDERDKASRNMRGSRMNGLPSPTHSAHCSFYRTRTLQALSNEKKAKKVRFYRNGDRYFKGIVYAVSSDRFRSFDALLADLTRSLSDNINLLQGVRYIYTIDGSRKIGSMDELEEGESYVCSSDNFFKKVEYTKNVNPNWSVNVKTSANMKAPQSLASSNSAQARENKDFVRPKLVTIIRSGVKPRKAVRVLLNKKTAHSFEQVLTDITEAIKLETGVVKKLYTLDGKQVTCLHDFFGDDDVFIACGPEKFRYAQDDFSLDENECRVMKGNPSATAGPKASPTPQKTSAKSPGPMRRSKSPADSGNDQDANGTSSSQLSTPKSKQSPISTPTSPGSLRKHKDLYLPLSLDDSDSLGDSM
Regarding B6, the binding entry was “binds”.

B7: SH3-containing GRB2-like protein 3-interacting protein 1 (protein, UniProt P0DJJ3 1-827)
chain: MMEGLKKRTRKAFGIRKKEKDTDSTGSPDRDGMQPSPHEPPYHSKAECAREGGKKASKKSNGAPNGFYAEIDWERYNSPELDEEGYSIRPEEPGSTKGKHFYSSSESEEEEESHKKFNIKIKPLQSKDVLKNAATVDELKASIGNIALSPSPVRKSPRRSPGAIKRNLSSEEVARPRRSTPTPELTSKKPLDDTLALAPLFGPPLESAFDEQKTEVLLDQPEIWGSGQPINPSMESPKLARPFPTGTPPPLPPKAVPATPPRTGSPLTVATGNDQAATEAKIEKLPSISDLDSIFGPVLSPKSVAVNTEEKWVHFSDASPEHVTPELTPREKVVTPPAASDIPADSPAPGPPGPPGSAGPPGPPGPRHVPSPLNLEEVQKKVAEQTFIKDDYLETLSSPKECGLGQRATPPPPPPPTYRTVVSSPGPGSGSGTGTASGASSPARPATPLVPCSSTTPPPPPPRPPSRPKLPPGKPGVGDVSRPFSPPIHSSSPPPIAPLARAESTSSISSTNSLSAATTPTVENEQPSLVWFDRGKFYLTFEGSSRGPSPLTMGAQDTLPVAAAFTETVNAYFKGADPSKCIVKITGEMVLSFPAGITRHFANNPSPAALTFRVINSSRLEHVLPNPQLLCCDNTQNDANTKEFWVNMPNLMTHLKKVSEQKPQATYYNVDMLKYQVSAQGIQSTPLNLAVNWRCEPGSTDLRIDYKYNTDAMTTAVALNNVQFLVPIDGGVTKLQAVLPPAVWNAEQQRILWKIPDISQKSENGGVGSLLARFQLSEGPSKPSPLVVQFTSEGSTLSGCDIELVGAGYRFSLIKKRFAAGKYLADN
On to B7, for which the binding result is recorded as “binds”.

B8: Ras-related protein Rab-3A (protein, UniProt P63012 1-220)
chain: MASATDSRYGQKESSDQNFDYMFKILIIGNSSVGKTSFLFRYADDSFTPAFVSTVGIDFKVKTIYRNDKRIKLQIWDTAGQERYRTITTAYYRGAMGFILMYDITNEESFNAVQDWSTQIKTYSWDNAQVLLVGNKCDMEDERVVSSERGRQLADHLGFEFFEASAKDNINVKQTFERLVDVICEKMSESLDTADPAVTGAKQGPQLTDQQAPPHQDCAC
As for B8, the binding entry was “binds”.

B9: Reticulon-1 (protein, UniProt Q64548 1-777)
chain: MAAPPDLQDEPLSPANPGSQLFGGRGEGEEATPKGARPAQQDGEPAWGSGAGAGVVSSRGLCSGPARSPPVAMETASTGVAAVPDALDHSSSPTLKDGEGACYTSLISDICYPPREDSAYFTGILQKENGHITTSESPEELGTPGPSLPEVPGTEPHGLLSSDSGIEMTPAESTEVNKILADPLDQMKAEACKYIDITRPQEAKGQEEQSPGLEDKDLDFKDKDSEVSTKPEGVHAPNQPSPVEGKLIKDNLFEESTFAPYIDELSDEQHRMSLVTAPVKITLTEIGPPVMTATHETIPEKQDLCLKPSPDTVPTVTVSEPEDDSPGSVTPPSSGTEPSAAESQGKGSVSEDELIAAIKEAKGLSYETTESPRPVGQAADRPKVKARSGLPTIPSSLDQEASSAESGDSEIELVSEDPMASEDALPSGYVSFGHVSGPPPSPASPSIQYSILREEREAELDSELIIESCDASSASEESPKREQDSPPMKPGVLDAIREETSSRATEERAPSHQGPVEPDPILSFTPVTLQSRPEPSSGDGAPVPEPPKSQQQKPEEEAVSSSQSPAATEIPGPLGSDLVPPLPFFNKQKAIDLLYWRDIKQTGIVFGSFLLLLFSLTQFSVVSVVAYLALAALSATISFRIYKSVLQAVQKTDEGHPFKAYLELEITLSQEQIQKYTDCLQLYVNSTLKELRRLFLVQDLVDSLKFAVLMWLLTYVGALFNGLTLLLMAVVSMFTLPVVYVKHQAQVDQYLGLVRTHINTVVAKIQAKIPGAKRHAE
B9: the binding entry is on record as “binds”.

B10: Beta-adducin (protein, UniProt Q05764 1-725)
chain: MSEDTVPEAASPPPSQGQHYFDRFSEDDPEYLRLRNRAADLRQDFNLMEQKKRVTMILQSPSFREELEGLIQEQMKKGNNSSNIWALRQIADFMASTSHAVFPASSMNFSMMTPINDLHTADSLNLAKGERLMRCKISSVYRLLDLYGWAQLSDTYVTLRVSKEQDHFLISPKGVSCSEVTASSLIKVNILGEVVEKGSSCFPVDTTGFSLHSAIYAARPDVRCAIHLHTPATAAVSAMKCGLLPVSHNALLVGDMAYYDFNGEMEQEADRINLQKCLGPTCKILVLRNHGMVALGDTVEEAFYKVFHLQAACEVQVSALSSAGGTENLILLEQEKHRPHEVGSVQWAGSTFGPMQKSRLGEHEFEALMRMLDNLGYRTGYTYRHPFVQEKTKHKSEVEIPATVTAFVFEEDGVPVPALRQHAQKQQKEKTRWLNTPNTYLRVNVADEVQRNMGSPRPKTTWMKADEVEKSSSGMPIRIENPNQFVPLYTDPQEVLDMRNKIREQNRQDIKSAGPQSQLLASVIAEKSRSPSTESQLASKGDADTKDELEETVPNPFSQLTDQELEEYKKEVERKKLEQEQEGEKDAATEEPGSPVKSTPASPVQSPTRAGTKSPAVSPSKASEDAKKTEVSEANTEPEPEKPEGVVVNGKEEEPCVEEVLSKGPGQMTTNADTDGDSYKDKTESVTSGPLSPEGSPSKSPSKKKKKFRTPSFLKKSKKKEKVES
Take B10: the binding result is recorded as “binds”.

B11: Ras-related protein Rab-3C (protein, UniProt P62824 1-227)
chain: MRHEAPMQMASAQDARFGQKDSSDQNFDYMFKLLIIGNSSVGKTSFLFRYADDSFTSAFVSTVGIDFKVKTVFKNEKRIKLQIWDTAGQERYRTITTAYYRGAMGFILMYDITNEESFNAVQDWSTQIKTYSWDNAQVILAGNKCDMEDERVVSTERGQRLGEQLGFEFFETSAKDNINVKQTFERLVDIICDKMSESLETDPAITAAKQSTRLKETPPPPQPNCGC
On to B11, for which the binding entry is listed as “binds”.
